For assay [1], the target named is FAK (human (HeLa cDNA)), Q05397. As to the kind of experiment: fluorescence cross-correlation spectroscopy (FCCS); cytosol of live REF52 cells co-expressing one protein tagged with meGFP and the other with TDmKate2; 37°C; association score against the negative control meGFP + TDmKate2 (Fisher's exact test, p-value <0.0001); apparent Ka. Conditions: remark: other sources report otherwise.

The chains behind the UniProt entries cited, without tags or fusion partners. Where a name states a change or a piece, a line headed by the entry shows the natural chain unless it says otherwise. A line that says so, or that is headed by a name, gives the form on record, which may keep a tag or linker.
paxillin (P49023, form named): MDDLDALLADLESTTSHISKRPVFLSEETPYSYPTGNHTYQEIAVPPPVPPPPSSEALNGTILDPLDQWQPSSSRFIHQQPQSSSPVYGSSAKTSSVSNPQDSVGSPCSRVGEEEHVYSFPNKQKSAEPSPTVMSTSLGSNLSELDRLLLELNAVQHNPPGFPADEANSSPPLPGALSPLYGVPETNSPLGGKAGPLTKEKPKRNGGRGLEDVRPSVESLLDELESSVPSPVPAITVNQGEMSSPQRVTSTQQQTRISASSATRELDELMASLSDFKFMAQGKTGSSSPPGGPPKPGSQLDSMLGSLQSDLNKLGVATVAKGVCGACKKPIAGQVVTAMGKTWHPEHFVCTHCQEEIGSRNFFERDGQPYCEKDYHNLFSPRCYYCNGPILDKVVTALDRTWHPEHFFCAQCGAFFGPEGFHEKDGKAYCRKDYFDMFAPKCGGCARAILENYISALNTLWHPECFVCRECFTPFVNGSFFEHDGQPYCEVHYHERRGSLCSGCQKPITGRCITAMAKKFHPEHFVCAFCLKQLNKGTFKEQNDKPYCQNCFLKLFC

Assay [2] shares this target. Description: fluorescence cross-correlation spectroscopy (FCCS); cytosol of live NIH3T3 cells co-expressing one protein tagged with meGFP and the other with TDmKate2; 37°C; association score against the negative control (p-value <0.02). Conditions: remark: other sources report otherwise.
For assay [3], the target named is paxillin (UniProt P49023). The description is as above.
Assay [4] has as its target paxillin (UniProt P49023). As to the kind of experiment: fluorescence cross-correlation spectroscopy (FCCS); cytosol of live REF52 cells co-expressing one protein tagged with meGFP and the other with TDmKate2; 37°C; association score against the negative control meGFP + TDmKate2 (Fisher's exact test, p-value <0.0001); apparent Ka.
The target in another assay is T1, p130CAS (UniProt P56945).
T1 sequence: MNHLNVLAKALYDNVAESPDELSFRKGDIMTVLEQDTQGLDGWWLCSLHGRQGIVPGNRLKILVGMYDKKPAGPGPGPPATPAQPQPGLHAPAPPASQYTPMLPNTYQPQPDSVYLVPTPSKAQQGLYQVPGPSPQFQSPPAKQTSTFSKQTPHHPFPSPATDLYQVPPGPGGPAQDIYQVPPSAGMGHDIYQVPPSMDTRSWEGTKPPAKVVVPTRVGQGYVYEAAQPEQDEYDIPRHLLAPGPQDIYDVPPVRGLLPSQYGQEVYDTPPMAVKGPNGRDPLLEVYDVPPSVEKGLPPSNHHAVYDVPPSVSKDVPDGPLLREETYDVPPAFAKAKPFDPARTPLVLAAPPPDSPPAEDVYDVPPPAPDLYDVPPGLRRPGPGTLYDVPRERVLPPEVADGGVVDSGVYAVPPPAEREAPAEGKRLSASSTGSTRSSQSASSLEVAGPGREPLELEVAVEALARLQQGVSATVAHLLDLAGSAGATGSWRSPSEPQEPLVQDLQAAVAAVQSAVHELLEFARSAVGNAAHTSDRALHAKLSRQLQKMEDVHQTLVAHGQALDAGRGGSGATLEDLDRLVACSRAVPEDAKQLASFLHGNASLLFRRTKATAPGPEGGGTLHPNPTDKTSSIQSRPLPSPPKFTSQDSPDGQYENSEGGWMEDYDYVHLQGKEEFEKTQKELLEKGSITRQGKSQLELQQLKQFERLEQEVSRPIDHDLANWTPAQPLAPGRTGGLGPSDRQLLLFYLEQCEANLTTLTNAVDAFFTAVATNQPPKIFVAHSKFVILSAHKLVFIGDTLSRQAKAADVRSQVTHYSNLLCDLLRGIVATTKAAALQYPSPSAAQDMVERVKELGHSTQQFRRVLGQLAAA
The description is as above.

Results are given in words; binding and its absence hold for the method and conditions named. Some results given as binding are weak or reduced against the parent protein; the word gives no strength.

B1: p130CAS, P56945 1-870 (protein)
chain: MNHLNVLAKALYDNVAESPDELSFRKGDIMTVLEQDTQGLDGWWLCSLHGRQGIVPGNRLKILVGMYDKKPAGPGPGPPATPAQPQPGLHAPAPPASQYTPMLPNTYQPQPDSVYLVPTPSKAQQGLYQVPGPSPQFQSPPAKQTSTFSKQTPHHPFPSPATDLYQVPPGPGGPAQDIYQVPPSAGMGHDIYQVPPSMDTRSWEGTKPPAKVVVPTRVGQGYVYEAAQPEQDEYDIPRHLLAPGPQDIYDVPPVRGLLPSQYGQEVYDTPPMAVKGPNGRDPLLEVYDVPPSVEKGLPPSNHHAVYDVPPSVSKDVPDGPLLREETYDVPPAFAKAKPFDPARTPLVLAAPPPDSPPAEDVYDVPPPAPDLYDVPPGLRRPGPGTLYDVPRERVLPPEVADGGVVDSGVYAVPPPAEREAPAEGKRLSASSTGSTRSSQSASSLEVAGPGREPLELEVAVEALARLQQGVSATVAHLLDLAGSAGATGSWRSPSEPQEPLVQDLQAAVAAVQSAVHELLEFARSAVGNAAHTSDRALHAKLSRQLQKMEDVHQTLVAHGQALDAGRGGSGATLEDLDRLVACSRAVPEDAKQLASFLHGNASLLFRRTKATAPGPEGGGTLHPNPTDKTSSIQSRPLPSPPKFTSQDSPDGQYENSEGGWMEDYDYVHLQGKEEFEKTQKELLEKGSITRQGKSQLELQQLKQFERLEQEVSRPIDHDLANWTPAQPLAPGRTGGLGPSDRQLLLFYLEQCEANLTTLTNAVDAFFTAVATNQPPKIFVAHSKFVILSAHKLVFIGDTLSRQAKAADVRSQVTHYSNLLCDLLRGIVATTKAAALQYPSPSAAQDMVERVKELGHSTQQFRRVLGQLAAA
For B1, the binding result in assay [1] and in assay [2] was “binds” each time.

B2: p130CAS (protein, UniProt P56945 1-870)
chain: MNHLNVLAKALYDNVAESPDELSFRKGDIMTVLEQDTQGLDGWWLCSLHGRQGIVPGNRLKILVGMYDKKPAGPGPGPPATPAQPQPGLHAPAPPASQYTPMLPNTYQPQPDSVYLVPTPSKAQQGLYQVPGPSPQFQSPPAKQTSTFSKQTPHHPFPSPATDLYQVPPGPGGPAQDIYQVPPSAGMGHDIYQVPPSMDTRSWEGTKPPAKVVVPTRVGQGYVYEAAQPEQDEYDIPRHLLAPGPQDIYDVPPVRGLLPSQYGQEVYDTPPMAVKGPNGRDPLLEVYDVPPSVEKGLPPSNHHAVYDVPPSVSKDVPDGPLLREETYDVPPAFAKAKPFDPARTPLVLAAPPPDSPPAEDVYDVPPPAPDLYDVPPGLRRPGPGTLYDVPRERVLPPEVADGGVVDSGVYAVPPPAEREAPAEGKRLSASSTGSTRSSQSASSLEVAGPGREPLELEVAVEALARLQQGVSATVAHLLDLAGSAGATGSWRSPSEPQEPLVQDLQAAVAAVQSAVHELLEFARSAVGNAAHTSDRALHAKLSRQLQKMEDVHQTLVAHGQALDAGRGGSGATLEDLDRLVACSRAVPEDAKQLASFLHGNASLLFRRTKATAPGPEGGGTLHPNPTDKTSSIQSRPLPSPPKFTSQDSPDGQYENSEGGWMEDYDYVHLQGKEEFEKTQKELLEKGSITRQGKSQLELQQLKQFERLEQEVSRPIDHDLANWTPAQPLAPGRTGGLGPSDRQLLLFYLEQCEANLTTLTNAVDAFFTAVATNQPPKIFVAHSKFVILSAHKLVFIGDTLSRQAKAADVRSQVTHYSNLLCDLLRGIVATTKAAALQYPSPSAAQDMVERVKELGHSTQQFRRVLGQLAAA
Turning to B2, the binding entry with paxillin [3] and with paxillin [4] was “binds” throughout.

B3: zyxin (protein, UniProt Q15942 1-572)
chain: MAAPRPSPAISVSVSAPAFYAPQKKFGPVVAPKPKVNPFRPGDSEPPPAPGAQRAQMGRVGEIPPPPPEDFPLPPPPLAGDGDDAEGALGGAFPPPPPPIEESFPPAPLEEEIFPSPPPPPEEEGGPEAPIPPPPQPREKVSSIDLEIDSLSSLLDDMTKNDPFKARVSSGYVPPPVATPFSSKSSTKPAAGGTAPLPPWKSPSSSQPLPQVPAPAQSQTQFHVQPQPQPKPQVQLHVQSQTQPVSLANTQPRGPPASSPAPAPKFSPVTPKFTPVASKFSPGAPGGSGSQPNQKLGHPEALSAGTGSPQPPSFTYAQQREKPRVQEKQHPVPPPAQNQNQVRSPGAPGPLTLKEVEELEQLTQQLMQDMEHPQRQNVAVNELCGRCHQPLARAQPAVRALGQLFHIACFTCHQCAQQLQGQQFYSLEGAPYCEGCYTDTLEKCNTCGEPITDRMLRATGKAYHPHCFTCVVCARPLEGTSFIVDQANRPHCVPDYHKQYAPRCSVCSEPIMPEPGRDETVRVVALDKNFHMKCYKCEDCGKPLSIEADDNGCFPLDGHVLCRKCHTARAQT
Regarding B3, the binding entry with p130CAS was “binds”.
